Where “and” joins values, the source holds several entries; their conditions need not be identical. Equal values may be shown once.

Series [1] in a line: Residual compound estimation study, CEC washout (LC-MS). Further details: species or system human.
Series [2] can be described thus: Residual compound estimation study, LSC washout (LC-MS). Further details: species or system human. The settings on record: expanded LSCs; for compound concentration in the Cell Pellet / compound in the Cell Pellet (pg/cell): PostWash_Pellet, replicates 1-3, LC-MS; for Avg of compound (pg/cell) in the Cell Pellet: average of PostWash_Pellets 1-3.

Turning to `C[C@H](N(C)c1nc(-c2ccncc2)nc2cnccc12)C(F)(F)F` [Example 48a, N-methyl-2-(pyridin-4-yl)-N-[(2S)-1,1,1-trifluoropropan-2-yl]pyrido[3,4-d]pyrimidin-4-amine], in series [1] (PostWash_Pellet, replicates 1-3, LC-MS), the “compound in the Cell Pellet (pg/cell)” value was 0.13 × 10^−6 pg/cell and 2.3 × 10^−6 pg/cell and 2.1 × 10^−6 pg/cell. Moreover, in series [1] (average of PostWash_Pellets 1-3), the “Avg of compound (pg/cell) in the Cell Pellet” value (“Avg of compound (pg/cell)” below) is 1.5 × 10^−6 pg/cell.
`CC(C)N(C)c1nc(-c2ccncc2)nc2cnccc12` [Example 5, N-methyl-N-(propan-2-yl)-2-(pyridin-4-yl)pyrido[3,4-d]pyrimidin-4-amine]: in series [2], the “compound concentration in the Cell Pellet” value (shortened to “compound concentration”) is 21.733 nM and 46.529 nM; the “compound in the Cell Pellet (pg/cell)” value is 0.00061 pg/cell and 0.00038 pg/cell and 0.0015 pg/cell; the “Avg of compound (pg/cell)” value is reported as 0.00083 pg/cell.
For the molecule `CC(C)(O)COCC(C)(C)Nc1nc(-c2ccncc2)nc2cnccc12` [Example 12, 2-methyl-1-(2-methyl-2-{[2-(pyridin-4-yl)pyrido[3,4-d]pyrimidin-4-yl]amino}propoxy)propan-2-ol], in series [2], the “compound concentration” value was 14.443 nM; the “compound in the Cell Pellet (pg/cell)” value was 0.000136 pg/cell and 0.000264 pg/cell and 0.000134 pg/cell; the “Avg of compound (pg/cell)” value is recorded as 0.000178 pg/cell.
Consider `CC(C)(C)Nc1cc(-c2ccncc2)nc2cnccc12` [Example 261, N-(tert-butyl)-2-(pyridin-4-yl)-1,7-naphthyridin-4-amine], for which, in series [2], the “compound concentration” value was 6.941 nM and 11.008 nM; the “compound in the Cell Pellet (pg/cell)” value is 0.0000043 pg/cell and 0.000095 pg/cell and 0.00015 pg/cell; the “Avg of compound (pg/cell)” value is given as 0.000083 pg/cell.

These data come from patent publication US11458138B2 (Novartis AG, priority 2017, dated 2022).
